Results are given in words; binding and its absence hold for the method and conditions named. Some results given as binding are weak or reduced against the parent protein; the word gives no strength.
Target: ERK2-mAG1-PB1 (UniProt P28482)
Assay: homoFluoppi (homo-dimerisation-dependent fluorescent puncta in living cells); Cos-7 cells transiently expressing ERK2-mAG1-PB1, pre-treated with 20 μM DEL22379 for 30 min, then 50 ng/ml EGF

By UniProt entry, the sequences of proteins in these tests, tags left out.
UniProt P28482: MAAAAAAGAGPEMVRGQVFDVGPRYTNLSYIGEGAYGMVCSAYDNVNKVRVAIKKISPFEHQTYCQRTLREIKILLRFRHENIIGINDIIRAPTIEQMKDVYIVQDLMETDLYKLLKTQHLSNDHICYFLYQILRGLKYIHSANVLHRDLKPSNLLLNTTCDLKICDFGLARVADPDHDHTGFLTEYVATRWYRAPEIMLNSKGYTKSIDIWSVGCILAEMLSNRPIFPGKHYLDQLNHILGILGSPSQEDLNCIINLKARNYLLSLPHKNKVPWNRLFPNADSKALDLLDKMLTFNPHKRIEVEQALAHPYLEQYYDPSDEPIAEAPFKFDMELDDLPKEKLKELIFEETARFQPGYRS

binding: binds weakly
Substance: ERK2-mAG1-PB1 (from UniProt P28482 1-360) (enzyme)
